Earlier results as cited in patent US20240189459A1, “METASTABLE-FREE LANTHANIDE BASED CONTRAST AGENTS AND METHOD” (Inventure LLC, priority 2022, published 2024).
Some results were stated once for a whole list of compounds, not compound by compound. At least one compound was matched to its structure with a doubt left.

Settings: free macrocyclic chelate compounds in the form of X [X', L] vs free macrocycles

Compound | toxicity of the X[X', L] form relative to the free macrocycles, according to the LD50 value
CC(O)CN1CCN(CC(=O)O)CCN(CC(=O)O)CCN(CC(=O)O)CC1 (centres unmarked) [HP-DO3A] | at least 10 times
O=C(O)CN1CCN(CC(=O)O)CCN(CC(=O)O)CCN(CC(=O)O)CC1 [DOTA, 1,4,7,10-tetraazacyclo-dodecane-N, N′, N″, N′″-tetraacetic acid] | at least 10 times
